Experimental data as given in PMC11652107.
Results are given in words; binding and its absence hold for the method and conditions named. Binding seen in cells or lysates may run through a third protein. Some binding calls cover weakened binding; strength is not graded here. Values belong to the substance of their own block, whether it stands above or below them.

Experiments:
[1] = target: Flag-tagged PARP1 (human (cloned from TE13 cells)) (UniProt P09874); assay: co-IP; KYSE30 cells expressing Flag-tagged PARP1 and GFP-tagged HMGA1, anti-Flag and anti-GFP antibodies, Western blot for HMGA1 and PARP1
[2] = target: GFP-tagged HMGA1 (human (cloned from TE13 cells)) (UniProt P17096); assay: co-IP; cells overexpressing GFP-HMGA1 wild type or E47A/E50A, IP with anti-GFP antibody, Western blot for PARP1 and Ku70; with or without etoposide and olaparib
[3] = target: high mobility group A1 (HMGA1), endogenous (human (endogenous in KYSE30 and KYSE510)) (UniProt P17096); assay: co-IP; endogenous proteins in KYSE30 and KYSE510 whole-cell extracts, anti-HMGA1 or anti-PARP1 antibody, protein A/G beads, Western blot; also with etoposide (enhanced) and olaparib pretreatment (attenuated)
[4] = target: GFP-tagged HMGA1 (human (cloned from TE13 cells)) (UniProt P17096); assay: co-IP; KYSE30 cells expressing Flag-tagged PARP1 and GFP-tagged HMGA1, anti-Flag and anti-GFP antibodies, Western blot for HMGA1 and PARP1
[5] = target: HMGA1 recombinant protein (prokaryotic expression, pET28a-sumo) (UniProt P17096); assay: pull-down; in vitro pull-down with an anti-His antibody after protein purification; recombinant HMGA1 from a prokaryotic expression system
[6] = target: poly(ADP‐ribose) polymerase 1 (PARP1), endogenous (human (endogenous in KYSE30 and KYSE510)) (UniProt P09874); assay: co-IP; endogenous proteins in KYSE30 and KYSE510 whole-cell extracts, anti-HMGA1 or anti-PARP1 antibody, protein A/G beads, Western blot; also with etoposide (enhanced) and olaparib pretreatment (attenuated)

binding [1]: binds
Substance: GFP-tagged HMGA1 (from UniProt P17096 1-107)

binding [2]: binds
binding [3]: binds
Substance: poly(ADP‐ribose) polymerase 1 (PARP1), endogenous (from UniProt P09874 1-1014) (enzyme)

binding [4]: binds
Substance: Flag-tagged PARP1 (from UniProt P09874 1-1014) (enzyme)

binding [5]: binds
Substance: PARP1 used in the in vitro pull-down (from UniProt P09874 1-1014) (enzyme)

binding [6]: binds
Substance: high mobility group A1 (HMGA1), endogenous (from UniProt P17096 1-107)
